Measurements as given in publication PMC7830388.

Tests used:
[1] = target: T1, CopR (Pyrococcus furiosus) (UniProt Q8U2U0); assay: EMSA; details: EMSA: 20 nM DNA, 40 mM HEPES pH 7.4, 80 mM (NH4)2SO4, 670 uM DTT, 20 ug/ml BSA, 6.7% glycerol, 50 ng HindIII-digested lambda DNA, 5 min 70 C, recombinant protein, label: 5'-Cy3 on S1 strand, probe letters rebuilt from the primers and the genome
T1 sequence (looked up, limits assumed): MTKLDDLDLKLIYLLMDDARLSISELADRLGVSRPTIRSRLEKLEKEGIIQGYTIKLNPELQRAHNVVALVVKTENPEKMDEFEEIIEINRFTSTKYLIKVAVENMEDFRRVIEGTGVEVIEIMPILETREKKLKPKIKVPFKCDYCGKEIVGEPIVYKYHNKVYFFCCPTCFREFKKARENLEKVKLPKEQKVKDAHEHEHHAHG

[2] = target: T2, CopRΔHIS (Pyrococcus furiosus) (UniProt Q8U2U0); assay: EMSA; details: CuSO4 50-1600 uM (200 nM protein), release slightly reduced vs full-length; EMSA: 20 nM DNA, 40 mM HEPES pH 7.4, 80 mM (NH4)2SO4, 670 uM DTT, 20 ug/ml BSA, 6.7% glycerol, 50 ng HindIII-digested lambda DNA, 5 min 70 C; recombinant protein; label: 5'-Cy3 on S1 strand; probe letters rebuilt from the primers and the genome
T2 sequence (looked up, limits assumed): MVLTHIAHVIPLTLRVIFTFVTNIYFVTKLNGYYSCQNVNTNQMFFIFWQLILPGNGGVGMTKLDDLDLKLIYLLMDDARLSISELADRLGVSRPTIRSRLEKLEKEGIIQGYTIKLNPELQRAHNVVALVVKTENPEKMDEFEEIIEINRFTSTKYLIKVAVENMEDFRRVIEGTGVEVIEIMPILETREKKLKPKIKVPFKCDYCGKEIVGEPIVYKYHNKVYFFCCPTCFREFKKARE

[3] = tested on: TBP + TFB; assay: DNase I footprinting; details: with 2.8 uM CopR: TBP/TFB lost at copR promoter, still present at copA promoter; DNase I: 4.4 nM DNA, 40 mM Na-HEPES pH 7.5, 125 mM NaCl, 0.1 mM EDTA, 0.1 mg/ml BSA, 1 mM DTT, 0.5 mM MgCl2, 20 min 70 C; recombinant protein; label: 5'-HEX on S1 or S2 strand (separate reactions); probe letters rebuilt from the primers and the genome

Measured: binding result

GAGTGATCTTCACTTTCGTCACCAATATTTACTTTGTGACGAAACTTAATGGGTATTATTCATGCCAAAATGTAAACACTAACCAAATGTTTTTTATATTTTGGCAACTAATACTCCCAGGGAATGGGGGTGTTGGAATGACCAAGTTAGATG (double strand) [copR/copA intergenic promoter region (EMSA)]
binds more weakly: [1]; AgNO3 12.5-50 uM (200 nM protein), strong effect | [1]; CoCl2 12.5-50 uM (200 nM protein), smaller effect than Cu, Ag | [1]; CuSO4 12.5-50 uM (200 nM protein), release from 12.5 uM | [1]; CuSO4 50-1600 uM (200 nM protein) | [1]; FeCl3 12.5-50 uM (200 nM protein), smaller effect than Cu, Ag | [2]

GAGTGATCTTCACTTTCGTCACCAATATTTACTTTGTGACGAAACTTAATGGGTATTATTCATGCCAAAATGTAAACACTAACCAAATGTTTTTTATATTTTGGCAACTAATACTCCCAGGGAATGGGGGTGTTGGAATGACCAAGTTAGATG (double strand) [copR/copA promoter region (DNase I footprint)]
binds more weakly: [3]

The exact form of at least one protein or probe is not confirmed. The comparison behind a weaker result is the experiment's own reference, which may not be listed here. For some of these results: Protein sequences can lack the tags named with them.
